A short description of the experiment: qHTS Assay for Modulators of Lamin A Splicing. Particulars: HeLa LMNA splicing GFP/RFP minigene ratio, 48 h. In outline: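 Read-out is the ratio of GFP to DsRed2 object intensity, acquired by 488 nm laser-scanning cytometry on HeLa lamin A-EGFP minigene reporter cells. Compound incubation 48 hrs at 37 °C in Opti-MEM with 2% FBS; DMSO 0.5% final.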
A general note: Quantitative high-throughput screening tests each substance at several concentrations.

Where [1] appears, read: measured here: RFP viability control channel.
Where [2] appears, read: measured here: GFP splicing reporter channel.

Among the data in PubChem BioAssay AID1487 (National Center for Advancing Translational Sciences (NCATS), 2009) are AC50 values, retold here.

Broadly, the AC50 is the midpoint of the concentration-response curve, whichever way the signal moves.

Some of the results follow. The main result of the screen is listed elsewhere. These columns were measured beside it and carry no call. The list favours compounds with an active or inconclusive main result. Potencies come from curve fits of mixed quality, noted in brackets.

Consider `Cc1cnc(NC(=O)c2cncc(Br)c2)s1`, for which, under setting [1], the concentration at half-maximal activity (AC50) is 0.0282 µM [falling, full curve, poor fit].
In the case of `COc1cc(-c2cc(C(=O)N3CCN(c4ccccn4)CC3)c3ccccc3n2)cc(OC)c1OC`, the AC50 under setting [1] is 14.1 µM [rising, single point].
The same measure, in the same setting: for `O=C(Nc1ccc(N2CCOCC2)c(Cl)c1)c1cc2ccccc2o1` the value was 17.8 µM [rising, single point].
With `c1ccc(N2CCN(c3ncnc4sc5c(c34)CCC5)CC2)cc1`, the AC50 under setting [2] is 14.1 µM [rising, partial curve, poor fit].
For the compound `COc1ccccc1NC(=O)CSC1=NCCN1`, the concentration at half-maximal activity (AC50) by setting is: under setting [2], 14.1 µM [rising, single point]; under setting [1], 35.5 µM [rising, single point].
As for `CC(=O)NS(=O)(=O)c1ccc(NC(=O)/C=C/c2ccccc2Cl)cc1`, the concentration at half-maximal activity (AC50) under setting [1] was 0.0794 µM [falling, full curve, poor fit].
Still for that read-out and setting: for `Clc1ccc(OCc2nc(-c3ccncc3)no2)c(Cl)c1` the value was 15.8 µM [falling, single point].
With `O=C(CSc1nnc(-c2ccc(F)cc2)c2ccccc12)Nc1c(F)cccc1F`, the concentration at half-maximal activity (AC50) was 20 µM [rising, single point] under setting [2] and 22.4 µM [rising, single point] under setting [1].
Take `CC(NC(=O)c1ccc(Br)o1)c1ccccc1` (stereo unspecified): under setting [2], the half-maximal activity concentration (AC50) is 0.0631 µM [rising, full curve, poor fit].
`COc1ccccc1-c1nnc(SC2CCc3ccccc3NC2=O)s1` (stereo unspecified): the AC50 under setting [1] is 12.6 µM [rising, partial curve].
For `Cc1nc2ccc(NC(=O)c3ccc(S(=O)(=O)N4CCOCC4)cc3)cc2s1`, under setting [1], the AC50 is 8.91 µM [rising, partial curve].
In the case of `S=C(c1ccc(-c2ccccc2Cl)o1)N1CCCCC1`, the AC50 under setting [1] was 25.1 µM [rising, single point].
Still for that read-out and setting: for `Cc1cc(Nc2ccccc2)n(-c2cccc(Cl)c2)n1` the value was 31.6 µM [rising, single point].
For the compound `Cc1ccc(S(=O)(=O)Nc2ccc(S(=O)(=O)Nc3cc(C)nc(C)n3)cc2)cc1`, the half-maximal activity concentration (AC50) under setting [2] was 0.01 µM [falling, full curve, poor fit] and the AC50 under setting [1] was 0.0178 µM [falling, full curve, poor fit].
`O=[N+]([O-])c1ncn(Cc2c(Cl)cccc2Cl)n1`: the AC50 under setting [1] was 20 µM [rising, partial curve, poor fit].
Still for that read-out and setting: for `O=C(Nc1nc(-c2ccc(S(=O)(=O)N3CCCC3)cc2)cs1)c1ccco1` the value was 25.1 µM [rising, partial curve, poor fit].
With `c1ccc(C2=Nc3c(ccc4ccccc34)C(c3ccncc3)=NN2)cc1`, the AC50 under setting [1] is 7.94 µM [falling, partial curve, poor fit].
As for `Cc1ccc(N(CC(C)C)S(=O)(=O)c2nnc(NC(=O)c3ccco3)s2)cc1`, the AC50 under setting [2] was 0.2 µM [rising, full curve, poor fit].
For the compound `Cc1c(C=O)c(C=O)c(C)n1Cc1ccccc1`, the AC50 under setting [1] was 2.51 µM [rising, full curve, poor fit].
Regarding `Cc1ccc2[nH]c3c(c2c1)CN(C(=O)CN1CCN(c2cccc(C)c2C)CC1)CC3`, the AC50 is 25.1 µM [falling, single point] under setting [2] and 14.1 µM [falling, single point] under setting [1].
Regarding `Cc1cc(C(=O)CCl)c(C)n1-c1cccc(S(=O)(=O)N2CCOCC2)c1`, under setting [1], the AC50 is 35.5 µM [falling, single point].
Regarding `Cc1ccc(CCNC(=O)C2CCC(CNc3c(N4CCC(C)CC4)c(=O)c3=O)CC2)cc1` (stereo unspecified), the AC50 under setting [2] is 11.2 µM [rising, single point].
On to `Cc1onc(-c2ccccc2Cl)c1C(=O)Nc1nnc(-c2ccc(Br)cc2)s1`, for which the AC50 under setting [1] is 14.1 µM [rising, partial curve].
In the case of `CSc1cccc(-c2nnc(NC(=O)c3ccc4c(c3)OCCO4)o2)c1`, the AC50 under setting [1] was 12.6 µM [rising, partial curve].
On the same count and under the same terms, the figure for `COc1ccc(OC)c2sc(NC(=O)CCSc3ccccc3)nc12` is 20 µM [rising, single point]; for `CCN(C(=O)CSc1nnc(Cn2nnc3ccccc32)o1)c1nc(C)cs1` it is 11.2 µM [rising, partial curve, poor fit].
For `COc1ccc(-c2ccc(NS(=O)(=O)c3cccc(Cl)c3)cc2)nn1`, the half-maximal activity concentration (AC50) under setting [2] is 31.6 µM [falling, partial curve, poor fit].
Turning to `CCc1ccc2c(c1)C(=O)c1ccccc1C2=O`, the AC50 by setting is: under setting [2], 35.5 µM [rising, single point]; under setting [1], 25.1 µM [rising, single point].
In the case of `Cc1[nH]n(-c2ccc(Cl)cc2)c(=O)c1C=NC12CN3CN(CN(C3)C1)C2`, under setting [1], the AC50 is 0.0562 µM [rising, full curve, poor fit].
Still for that read-out and setting: for `Cn1cc(/C=N/Nc2ccccc2)c2ccccc21` the value was 17.8 µM [rising, single point].
Consider `CCCN1CCCC[C@H]1C(=O)Nc1c(C)cccc1C`, for which the half-maximal activity concentration (AC50) is, setting by setting: under setting [2], 3.98 µM [falling, partial curve, poor fit]; under setting [1], 2.51 µM [falling, partial curve, poor fit].
With `Cc1ccc(-n2ncc3c(N(CCO)Cc4ccccc4)ncnc32)cc1`, under setting [2], the AC50 is 12.6 µM [rising, single point].
On to `COc1cc(C(=O)NCc2ccc(OCCN(C)C)cc2)cc(OC)c1OC`, for which the concentration at half-maximal activity (AC50) under setting [2] is 0.0708 µM [falling, full curve] and the half-maximal activity concentration (AC50) under setting [1] was 0.0562 µM [falling, full curve].
On to `Cc1ccc(NC(=O)C2(N3CCC3=O)CCCCC2)cc1`, for which the AC50 under setting [2] is 0.0316 µM [rising, full curve, poor fit].
With `Cc1ccc(C(CC(=O)O)Nc2nc(N3CCOCC3)nc(N3CCOCC3)n2)cc1` (stereo unspecified), the AC50 under setting [1] was 10 µM [rising, single point].
With `Cc1ccc(CSCCNC(=O)c2ccccc2)cc1`, the AC50 is, setting by setting: under setting [2], 25.1 µM [rising, single point]; under setting [1], 35.5 µM [rising, single point].
Take `O=C(Cc1csc2nc(-c3ccccc3)cn12)NCc1ccc(F)cc1`: the AC50 under setting [2] is 3.98 µM [falling, full curve, poor fit].
Same read-out and setting: the figure for `CCCn1c(N2CCC(Cc3ccccc3)CC2)nc2c1c(=O)[nH]c(=O)n2C` is 10 µM [rising, partial curve].
